Experimental data reported in patent US20260167673A1, “NOVEL POLYPEPTIDE, POLYPEPTIDE DERIVATIVE AND USE THEREOF” (NANJING ANJI BIOTECHNOLOGY CO., LTD., priority 2023, published 2026).
At least one peptide structure holds a part that was inferred or is arguable (an end, a ring closure or a residue). Where no end group is shown, it is not given here.

Test system: human diffuse large B-cell lymphoma (DLBCL) cells WSU-DLCL2
Test: CCK8 proliferation inhibition, WSU-DLCL2
Type: cell-based
Settings: 48 h
Experimental: Incubation was continued for 4 h in a cell incubator, an absorbance was measured at 450 nm, and a proliferation inhibition was calculated. Data was presented as mean±SD, and GraphPad Prism 5.0 statistical software was used. A t-test was used for comparison between two groups, while One-way Anova (Dunnett) was used for comparison among a plurality of groups.

For “SVEAKMQSTSCSVRKSSTVTAWPAVVLLLSWGQRRGG [HMMW15-51]”, the “Inhibition (%)” value (WSU-DLCL2, 50 μM) was 52.360 ± 3.672 %, the OD (WSU-DLCL2, 50 μM) was 0.626 ± 0.048 and the “Inhibition (%)” value (WSU-DLCL2, 75 μM) was 63.629 ± 2.463 %. The OD (WSU-DLCL2, 75 μM) was 0.478 ± 0.032, the “Inhibition (%)” value (WSU-DLCL2, 100 μM) was 78.934 ± 2.143 % and the OD (WSU-DLCL2, 100 μM) was 0.277 ± 0.028.
